# According to PubChem BioAssay AID743255 (National Center for Advancing Translational Sciences (NCATS), 2014):
# Sequences of proteins named here, by UniProt entry; tags and fusion partners are left off. A change or cut given only in a name is not applied to a line headed by its entry.
# UniProt O94782: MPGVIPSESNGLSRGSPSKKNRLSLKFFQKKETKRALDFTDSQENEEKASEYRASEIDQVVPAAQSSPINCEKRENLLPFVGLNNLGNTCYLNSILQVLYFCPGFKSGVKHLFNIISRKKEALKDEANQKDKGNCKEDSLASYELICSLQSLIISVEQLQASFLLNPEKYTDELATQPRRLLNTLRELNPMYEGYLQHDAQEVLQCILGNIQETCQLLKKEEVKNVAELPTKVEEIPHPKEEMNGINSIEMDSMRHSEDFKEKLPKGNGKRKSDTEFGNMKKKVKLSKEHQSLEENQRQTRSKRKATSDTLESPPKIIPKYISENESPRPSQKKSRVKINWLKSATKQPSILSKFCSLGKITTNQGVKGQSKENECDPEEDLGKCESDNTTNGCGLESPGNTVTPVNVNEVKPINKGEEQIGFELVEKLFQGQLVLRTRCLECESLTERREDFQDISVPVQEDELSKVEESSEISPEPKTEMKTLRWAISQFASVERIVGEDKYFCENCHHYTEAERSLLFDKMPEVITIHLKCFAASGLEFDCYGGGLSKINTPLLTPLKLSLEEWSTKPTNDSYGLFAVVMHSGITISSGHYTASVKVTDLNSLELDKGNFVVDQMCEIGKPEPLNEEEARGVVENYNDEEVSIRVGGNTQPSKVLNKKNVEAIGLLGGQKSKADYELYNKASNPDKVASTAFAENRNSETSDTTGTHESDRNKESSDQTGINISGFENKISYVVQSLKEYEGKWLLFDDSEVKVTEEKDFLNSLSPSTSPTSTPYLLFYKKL
# In all, about 390,000 compounds went through this assay and about 910 (0.23%) were called active. This list was built around the results that the source calls inconclusive (neither active nor inactive); the mix of calls is not that of the screen. Calls come from the whole dose curve; as a rule, active = well fitted inhibition curve with a large enough effect; inconclusive = small, poorly fitted or top-dose-only effect; inactive = no such curve, though single readings can be large or run the other way. A potency beside an inconclusive call is a rough fit, not a confirmed value.
# Target: Ubiquitin carboxyl-terminal hydrolase 1 (Homo sapiens) (UniProt O94782)
# Assay: Inhibitors of USP1/UAF1: Primary Screen; note: nearly all actives have a fitted effect of over 60% in size
# Details: recombinant USP1/UAF1, Ub-Rhodamine cleavage fluorescence; activity change, negative = inhibition: at 57.1 µM (top of the series)
# Summary of the method: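 High-throughput fluorogenic screen: 1nM USP1/UAF1 complex, Ub-Rho substrate 150nM final, 50mM HEPES pH 7.8 with 0.5mM EDTA, 0.1 mg/ml BSA, 1mM TCEP and 0.01% Tween-20.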
# % is set by controls: 0 for no effect and ±100 for the full control effect; potency is the fitted concentration of half-maximal effect.
SMILES,"activity change, negative = inhibition",Potency
COc1cc([N+](=O)[O-])cc(/C=N/NC(=O)C(C)Nc2cccc3ccccc23)c1O (stereo not drawn),inconclusive: -31% [inhibitor],–
c1ccc(-c2ccc3ccccc3n2)cc1,–,inactive
CCN(CC)C(=O)C1=C(C)N(Cc2ccc(C(C)(C)C)cc2)C(=O)C(CC(=O)NC(c2ccccc2)c2ccccc2)C1 (stereo not drawn),–,"inconclusive: 79.4 µM [inhibitor, partial curve, poor fit]"
Cc1cc(=O)[nH]c2c(C)c(N)ccc12,–,inactive
CC(=O)N1c2cc3ccccc3cc2N(C(C)=O)c2cc3ccccc3cc21,–,inactive
Cc1ccc(S(=O)(=O)NNC(=O)C2CCCCC2)cc1,–,"inconclusive: 11.2 µM [inhibitor, partial curve]"
COc1cc(OC)c(NC(c2nnc(-c3ccccc3)o2)c2ccc(F)cc2Cl)cc1Cl (stereo not drawn),–,"inconclusive: 11.2 µM [inhibitor, partial curve]"
CCn1cc(S(=O)(=O)c2cc(C)cc(C)c2)c(=O)c2cc(F)c(N3CCOCC3)cc21,–,"inconclusive: 11.2 µM [inhibitor, partial curve, poor fit]"
O=C(Nc1ccccc1)Nc1ccccc1Br,–,"inconclusive: 50.1 µM [inhibitor, single point]"
COc1ccccc1-n1cc(-c2ccc(C)cc2)nc1S(=O)(=O)CC(=O)Nc1ccccc1C(F)(F)F,–,"inconclusive: 5.62 µM [inhibitor, full curve, poor fit]"
CCc1ccc2c(c1)c1nnc(NN)nc1n2CC,–,"inconclusive: 39.8 µM [inhibitor, partial curve]"
Cc1cc(C(=O)N/N=C/c2ccc([N+](=O)[O-])s2)c2ccccc2n1,–,inactive
COc1cc(CN(C(=O)c2cc3ccccc3oc2=O)C2CCS(=O)(=O)C2)cc(OC)c1OC (stereo not drawn),–,"inconclusive: 7.94 µM [inhibitor, partial curve, poor fit]"
Nc1c(SCCC(=O)O)ccc2c1C(=O)c1ccccc1C2=O,–,"inconclusive: 0.282 µM [inhibitor, full curve, poor fit]"
CC(=O)n1cc([C@@H]2C=C(C(=O)N3CCN(Cc4ccccc4)CC3)O[C@H](OCc3ccc(CO)cc3)C2)c2ccccc21,–,"inconclusive: 7.94 µM [inhibitor, partial curve]"
O=C(O)c1ccc(C(=O)c2ccc3c(c2)C(=O)N(CCO)C3=O)cc1,–,inactive
CCOC(=O)c1c(Oc2ccc(C(=O)OC)cc2)nnc(-c2ccccc2)c1-c1ccccc1,–,"inconclusive: 17.8 µM [inhibitor, partial curve]"
C[N+](C)(C)CCC(=O)N1C/C(=C/c2ccccc2)C(=O)/C(=C\c2ccccc2)C1,–,"inconclusive: 31.6 µM [inhibitor, partial curve]"

# Complete entries, quoted from the list. Order of values: activity change, negative = inhibition | Potency
# CC(=O)n1cc([C@@H]2C=C(C(=O)N3CCN(Cc4ccccc4)CC3)O[C@H](OCc3ccc(CO)cc3)C2)c2ccccc21 is listed with – | inconclusive: 7.94 µM [inhibitor, partial curve]
# CCn1cc(S(=O)(=O)c2cc(C)cc(C)c2)c(=O)c2cc(F)c(N3CCOCC3)cc21 is listed with – | inconclusive: 11.2 µM [inhibitor, partial curve, poor fit]
